From PubChem BioAssay AID662 (National Center for Advancing Translational Sciences (NCATS), 2007)
The other results are listed elsewhere or left out. The main result of the screen is listed elsewhere. These columns were measured beside it and carry no call. The list favours compounds with an active or inconclusive main result. The note in brackets gives the kind of curve behind each potency; many fits are weak.

Assay: Cell signaling CRE-BLA (Fsk stim)
Settings: CHO CRE-bla reporter (cAMP response element driving beta-lactamase), forskolin EC10, beta-lactamase ratio; measured here: 460 nm blue channel
Summary of the method: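 Titrated compounds plus EC10 NKH 477 on CHO CRE-bla cells, 3 h, 37 °C. CCF4, 2 h RT. Ratio 460/530 nm → AC50.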

Row | Compound | AC50
1 | COc1cc(OC)c(C(=O)CCCCN2CCC3(CC2)NC(=O)NC3=O)cc1NS(=O)(=O)c1ccc(C(F)(F)F)cc1 | 7.94 µM [rising, partial curve, poor fit]
2 | O=C(COc1ccccc1)N1CCN(C(=O)Cc2ccccc2)CC1 | 0.00794 µM [falling, full curve]
3 | COC(=O)c1cc(=O)nc2sc3ccccc3n12 | 12.6 µM [rising, partial curve]
4 | Cn1cc(-c2nc3cnc(N4CCNCC4)nc3n(C)c2=O)c2ccccc21 | 12.6 µM [rising, partial curve]
5 | Cc1ccc(CNC(=O)C2C3C=CC4(CN(Cc5cccnc5)C(=O)C24)O3)cc1 (stereo not drawn) | 0.02 µM [rising, full curve, poor fit]
6 | Cc1ccc(S(=O)(=O)c2nc(-c3ccccc3)oc2NCc2cccnc2)cc1 | 12.6 µM [rising, single point]
7 | CCCCNC(=O)c1ccc(N2CCOCC2)c(NS(=O)(=O)c2ccc(OC)cc2)c1 | 20 µM [rising, single point]
8 | COc1cccc(Nc2ncc3nc(-c4cn(C)c5ccccc45)c(=O)n(CCC#N)c3n2)c1 | 12.6 µM [rising, partial curve]
9 | CC(C)Sc1nc2c(c(=O)n1C)SC(C)C2 (stereo not drawn) | 12.6 µM [rising, partial curve, poor fit]
10 | COc1ccc(-n2c(=O)c(-c3ccc(F)cc3)nc3cnc(OC)nc32)cc1 | 3.98 µM [rising, single point]
11 | O=C(NCCc1ccc2c(c1)OCCO2)c1cc2ccccc2o1 | 25.1 µM [falling, single point]
12 | COc1cc(CN2CCN(c3cccc(C)c3C)CC2)cc(Br)c1O | 0.00398 µM [falling, full curve, poor fit]
13 | CCOC(=O)c1c(C)nc2c3ccccc3ccn12 | 3.16 µM [rising, full curve]
14 | CCOC(=O)c1c(NC(=O)c2cccs2)sc(C(=O)N2CCOCC2)c1C | 3.16 µM [rising, full curve, poor fit]
15 | COC(=O)CSc1nc(NCC(C)C)nc(N2CCOCC2)n1 | 7.94 µM [rising, partial curve]
16 | Brc1ccc2oc3c(N4CCOCC4)ncnc3c2c1 | 6.31 µM [rising, partial curve]
17 | O=C(Cn1c(C(=O)NCc2ccco2)cc2sccc21)c1ccccc1 | 15.8 µM [falling, partial curve]
18 | O=c1[nH]c(Cn2nnc(-c3ccccc3)n2)nc2scc(-c3ccccc3)c12 | 5.01 µM [falling, single point]

Excerpt, compounds 16 to 17
Row | Compound | AC50
16 | Brc1ccc2oc3c(N4CCOCC4)ncnc3c2c1 | 6.31 µM [rising, partial curve]
17 | O=C(Cn1c(C(=O)NCc2ccco2)cc2sccc21)c1ccccc1 | 15.8 µM [falling, partial curve]
